Patent US20240108688A1, “Inhibitors of the tissue factor-protease activated receptor 2 (TF-PAR2) signaling pathway for use in the treatment or prevention of heart failure (HF) and associated or resulting diseases” (priority 2020, published 2024)
At least one compound was matched to its structure with a doubt left.

Assays:
murine monocytes = assay: Isolated murine monocytes exposed to hypoxia (OGD) plus inflammatory cytokine cocktail, western blot; assay type: cell-based, mouse; conditions: trametinib 10 μM pre-treatment 1 h; IL-6, TNF-α, CCL2 20 ng/ml plus hypoxia 4 hrs
[1] = test system: permanent LAD ligation mouse model of MI; conditions: trametinib 1 mg/kg/d oral

SMILES: CC(=O)Nc1cccc(-n2c(=O)n(C3CC3)c(=O)c3c(Nc4ccc(I)cc4F)n(C)c(=O)c(C)c32)c1 [trametinib, reference compound]
- ERK1/2 phosphorylation (murine monocytes): blocked
- TGF-β1 activation (murine monocytes): blocked
- recruitment of CD45+, CD45+/CD11b+, CD45+/CD11b+/Ly6Chigh and Ly6Clo myeloid cells into the infarcted heart ([1]; day 1-7, flow cytometry normalized to heart weight): attenuated
- mRNA expression of C-C chemokine receptor 2 (Ccr2) ([1]; day 1-7, infarcted myocardium): significantly reduced
- mRNA expression of COLO1A1, COLO3A1, Posn and ACTA2 (fibrosis markers) ([1]; day 1-7, infarcted myocardium): significantly reduced
- mRNA expression of inflammatory cytokines and chemokines interleukin-6, tumor necrosis factor alpha and C-C chemokine ligand 2 ([1]; day 1-7, infarcted myocardium): did not reduce
- activation of TGF-β1 in the infarcted myocardium ([1]; day 1-7, normalized to GAPDH): significantly reduced
- activation of the ERK pathway in cardiac tissue (pERK1/2 normalized to total ERK1/2) ([1]; day 1-7 after MI, infarcted myocardium): prevented activation of the ERK pathway
